Results from patent EP0540859B1, “Anthracycline prodrugs” (Bristol-Myers Squibb Company, priority 1987, dated 1989).
At least one read-out could not be matched to a standard name with certainty.

Tests used:
penicillin V amidase = assay: Hydrolysis of APO to adriamycin by PVA or L6-PVA conjugate (HPLC); type: biochemical, Fusarium oxysporum; conditions: APO 0.1 mM in PBS
Experimental: The ability of the antibody-PVA conjugate, L6-PVA, to convert the novel prodrug, APO, to adriamycin was measured as follows: either a) PVA alone (final concentration:50 µg/ml), b) 100 µg/ml of the L6-PVA conjugate (final PVA concentration: 25 µg/ml) or c) 10 µg/ml of L6-PVA (final PVA concentration: 2.5 µg/ml) were added to a solution of APO (0.1 mM) in PBS. Each reaction was monitored by HPLC using a Phenominex C-18 column (3 µm, 4.5 x 100 mm) and a gradient elution of 20-60% tetrahydrofuran in water with 0.1% H3PO4 (1.0 ml/min, monitored at 495 nm). Under these conditions, the adriamycin eluted at 8.9 minutes and the APO eluted at 12.2 minutes.

[1] = test system: calf intestinal or human placental AP; assay: Reactivity of MOP with AP (HPLC); type: biochemical; conditions: MOP 1 mM, AP 1 µg/ml, 100 mM Tris pH 7.2, room temperature
Experimental: The MOP prodrug was then tested for its reactivity with AP. […] The course of the reaction was monitored by HPLC using a C-18 column (4.6 x 150 mm) and the following conditions: detection at 280 nm; 30-95% methanol in acetate buffer (100 mM, pH 5.2) over 8 min, re-equilibration after 15 min; 0.8 ml/min flow rate. Under these conditions, MMC eluted at 7.0 min, MOH eluted at 8.5 min, and MOP eluted 4.0 min. […] HPLC served to confirm that the corresponding alcohol, MOH, was formed. Under the reaction conditions used, the half life for hydrolysis of MOP was about 10 min and the reaction went to completion within 40 min.

| Compound | half life for the hydrolysis of APO by PVA (penicillin V amidase) | half life for hydrolysis of MOP [1] |
| --- | --- | --- |
| COc1cccc2c1C(=O)c1c(O)c3c(c(O)c1C2=O)C[C@@](O)(C(=O)CO)C[C@@H]3O[C@H]1C[C@H](NC(=O)COc2ccc(O)cc2)[C@H](O)[C@H](C)O1 [APO, N-(p-hydroxyphenoxyacetyl)adriamycin] | approximately 20 min | – |
| CO[C@@]12[C@H](COC(N)=O)C3=C(C(=O)C(C)=C(NCCOP(=O)(O)O)C3=O)N1C[C@@H]1N[C@@H]12 [MOP, 7-(2'-aminoethyl phosphate)mitomycin] | – | about 10 min |
